We go through three substances from patent US6489440B1 (Basilea Pharmaceutica AG, priority 1998, dated 2002).

Some peptides are written in HELM: one residue between dots, names in brackets for other building blocks, links after the first $.

The data set in a line: general procedure: peptide synthesis; BOP reagent, HOBT hydrate, N,N-diisopropylethylamine. Particulars: late stage modification step.
With “N-Boc derivative (N(orn)-Boc-IX) of the ornitine residue of the compound (IX)”, the step yield is recorded as 45%.

With “N-Boc derivative (N(va1)-Boc-IX) of the valine residue of the compound (IX)”, the step yield is 6%.

“PEPTIDE1{[HA16].[xThr].[xAla].[xTyr].[xVal].[x4Hyp].[xThr].[xThr].[x3Hyp].[x3OHGln].G.[xThr].[xOrnSar]}$PEPTIDE1,PEPTIDE1,1:R1-13:R2$$$V2.0” had a step yield of 39%.
